Measured data: PubChem BioAssay AID504804 (Drosophila RNAi Screening Center, 2011)

Assay: 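Knock-downs shielding fly cells from apoptosis caused by DNA damage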 (primary screen)
Cell system: Drosophila Kc cells
Reagents: long dsRNA against Drosophila genes, 0.5 µg dsRNA per well
Time to read-out: 96 h (48 h knock-down, then 48 h drug)
Conditions: doxorubicin 5 µg/ml for 48 h, added 48 h after dsRNA
Measurement: 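Luminescent ATP counts per replicate, not normalised, reflecting viable cells after 48 h dsRNA knock-down followed by 48 h of 5 µg/ml doxorubicin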
Scale: raw ATP luminescence: higher = more viable cells, protection from doxorubicin
Call rule: 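z-score of 2 or more over plate mean in both duplicates, retained only when retests and separate dsRNAs confirm the protection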
The screen tested about 19,000 reagents; shown is a random part of those that have a named target and a result. In the full data, 47 (0.25%) were called active. 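Signals are raw, not normalised; exact z-scores behind calls not deposited; actives needed confirmation, so some wells reaching 2 SD are inactive.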 A number with no mark means an inactive call. A plus sign joins genes that one reagent is predicted to hit. Reagent sequences are not shown.

CG8507 [DRSC16435] → raw ATP luminescence, replicate 1 = 56730; raw ATP luminescence, replicate 2 = 51813
CG14589 [DRSC04866] → raw ATP luminescence, replicate 1 = 42327; raw ATP luminescence, replicate 2 = 43700
CG31274 + MESK4 [DRSC13202] → raw ATP luminescence, replicate 1 = 1.97e5; raw ATP luminescence, replicate 2 = 2.09e5
CG17780 [DRSC15265] → raw ATP luminescence, replicate 1 = 73090; raw ATP luminescence, replicate 2 = 75250
Pde6 (Phosphodiesterase 6) [DRSC16401] → raw ATP luminescence, replicate 1 = 91190; raw ATP luminescence, replicate 2 = 26923
Pde6 (Phosphodiesterase 6) [DRSC16402] → raw ATP luminescence, replicate 1 = 66320; raw ATP luminescence, replicate 2 = 68710
Pde6 (Phosphodiesterase 6) [DRSC16403] → raw ATP luminescence, replicate 1 = 66990; raw ATP luminescence, replicate 2 = 57860
Eato (Engulfment ABC Transporter in the ovary) [DRSC01891] → raw ATP luminescence, replicate 1 = 97183; raw ATP luminescence, replicate 2 = 85033
Eato (Engulfment ABC Transporter in the ovary) [DRSC03061] → raw ATP luminescence, replicate 1 = 66820; raw ATP luminescence, replicate 2 = 76287
CanA-14F (Calcineurin A at 14F) [DRSC20211] → raw ATP luminescence, replicate 1 = 2.52e5; raw ATP luminescence, replicate 2 = 2.37e5
Osi24 (Osiris 24) [DRSC12275] → raw ATP luminescence, replicate 1 = 71220; raw ATP luminescence, replicate 2 = 70040
CG13056 [DRSC09937] → raw ATP luminescence, replicate 1 = 70787; raw ATP luminescence, replicate 2 = 55917
CG5770 [DRSC06954] → raw ATP luminescence, replicate 1 = 59463; raw ATP luminescence, replicate 2 = 63727
CG13933 [DRSC08402] → raw ATP luminescence, replicate 1 = 61737; raw ATP luminescence, replicate 2 = 48230
CG14717 [DRSC14940] → raw ATP luminescence, replicate 1 = 55030; raw ATP luminescence, replicate 2 = 55437
Jon65Aiii (Jonah 65Aiii) [DRSC10649] → raw ATP luminescence, replicate 1 = 38813; raw ATP luminescence, replicate 2 = 34373
Elp3 (Elongator complex protein 3) [DRSC00448] → raw ATP luminescence, replicate 1 = 26263; raw ATP luminescence, replicate 2 = 26600
Whamy (WHAMM and JMY related) [DRSC14574] → raw ATP luminescence, replicate 1 = 55657; raw ATP luminescence, replicate 2 = 52630
Gnpat (Glyceronephosphate O-acyltransferase) [DRSC16960] → raw ATP luminescence, replicate 1 = 63110; raw ATP luminescence, replicate 2 = 73750

The list goes on, starting with the last 2 of the part before.
Whamy (WHAMM and JMY related) [DRSC14574] → raw ATP luminescence, replicate 1 = 55657; raw ATP luminescence, replicate 2 = 52630
Gnpat (Glyceronephosphate O-acyltransferase) [DRSC16960] → raw ATP luminescence, replicate 1 = 63110; raw ATP luminescence, replicate 2 = 73750
CG4377 [DRSC04467] → raw ATP luminescence, replicate 1 = 72107; raw ATP luminescence, replicate 2 = 52283
Wdr33 (WD repeat domain 33) [DRSC12162] → raw ATP luminescence, replicate 1 = 92990; raw ATP luminescence, replicate 2 = 43903
CG14866 [DRSC14989] → raw ATP luminescence, replicate 1 = 90460; raw ATP luminescence, replicate 2 = 93670
Poc1 (Proteome of centrioles 1) [DRSC09713] → raw ATP luminescence, replicate 1 = 38020; raw ATP luminescence, replicate 2 = 44257
CG34040 [DRSC03902] → raw ATP luminescence, replicate 1 = 53927; raw ATP luminescence, replicate 2 = 55663
Efhc1.2 (EF-hand domain containing 1.2) [DRSC06027] → raw ATP luminescence, replicate 1 = 49553; raw ATP luminescence, replicate 2 = 54230
CG32512 [DRSC20519] → raw ATP luminescence, replicate 1 = 3.30e5; raw ATP luminescence, replicate 2 = 3.37e5
CG32512 [DRSC20551] → raw ATP luminescence, replicate 1 = 2.65e5; raw ATP luminescence, replicate 2 = 2.50e5
CG11380 [DRSC18632] → raw ATP luminescence, replicate 1 = 18980; raw ATP luminescence, replicate 2 = 19850
l(1)G0469 (lethal (1) G0469) [DRSC19462] → raw ATP luminescence, replicate 1 = 4.13e5; raw ATP luminescence, replicate 2 = 3.35e5
p47 [DRSC06046] → raw ATP luminescence, replicate 1 = 46847; raw ATP luminescence, replicate 2 = 41220
heca (headcase) [DRSC16964] → raw ATP luminescence, replicate 1 = 13430; raw ATP luminescence, replicate 2 = 17240
CG14570 [DRSC11731] → raw ATP luminescence, replicate 1 = 63977; raw ATP luminescence, replicate 2 = 61303
Ets65A (Ets at 65A) [DRSC09968] → raw ATP luminescence, replicate 1 = 91840; raw ATP luminescence, replicate 2 = 1.01e5
Ets65A (Ets at 65A) [DRSC10738] → raw ATP luminescence, replicate 1 = 48723; raw ATP luminescence, replicate 2 = 43233
Ets65A (Ets at 65A) [DRSC11164] → raw ATP luminescence, replicate 1 = 48193; raw ATP luminescence, replicate 2 = 52797
CG14331 [DRSC14810] → raw ATP luminescence, replicate 1 = 82540; raw ATP luminescence, replicate 2 = 73080
